# According to PMC11927960, “Multiparameter ranking of carbazoles for anti-trypanosome lead discovery” (Frontiers in drug discovery, 2024):
# How the values were obtained:
# [1] = Plasma pharmacokinetics after single oral dose; format: in vivo, Swiss Webster mice; conditions: female mice Cmax vs EC50 of T. brucei AnTat1.1
# Protocol: The plasma concentration and tissue distribution of drugs were determined by Absorption Systems. […] Blood and brain samples were obtained at 1, 2, 4, and 6 h post-dosing, and plasma and brain concentrations of the drug were determined using LC-MS/MS. Stock standards for calibration were prepared in a matrix comprising equal volumes of water and mouse blood containing K2-EDTA as an anticoagulant. Working solutions were prepared in 50:50 acetonitrile–water and added to the matrix to final concentrations of 1,000, 500, 100, 50.0, 10.0, 5.00, 1.00, and 0.500 ng/mL for all compounds. Pharmacokinetic parameters were determined using Phoenix WinNonlin (v8.0) software with sparse sampling. Maximum plasma concentration (Cmax) and the time to reach maximum plasma concentration (tmax) were determined from the four data points. The area under the time concentration curve (AUClast) was calculated using the linear trapezoidal rule with calculation to a 6-h data point. Plasma half-life (t1/2) was calculated from 0.693/slope of the terminal elimination phase. Samples below the limit of detection (0.500 ng/mL) were treated as 0.
# [2] = Curaxin HAT lead efficacy (CHLE) score; conditions: for CHLE Score: empirical multiparameter formula of Table 5; for DTC90: AUC0–6h: ratio used for CHLE score, AUC0–6h from mouse PK, DTC90 from T. brucei
SMILES,Cmax fold higher than EC50 of T. brucei AnTat1.1 [1],CHLE Score [2],DTC90: AUC0–6h [2]
"CC(=O)c1cc2c3cc(C(C)=O)c(O)cc3n(CCCN(C)C)c2cc1O [CBL0174, 1-[6-acetyl-9-[3-(dimethylamino)propyl]-2,7-dihydroxy-carbazol-3-yl]ethanone]",28 fold,41.3,5.4
"CC(=O)c1cc2c3cc(C(C)=O)c(O)cc3n(CCNC(C)C)c2cc1O [CBL0187, 1-[6-acetyl-2,7-dihydroxy-9-[2-(isopropylamino)ethyl]carbazol-3-yl]ethanone]",31 fold,17.8,5.3
